± gives the half width of the 95% confidence interval. The two proteases of the assay disagree for many of these sequences.
What was measured:
[1] = folding stability dG unfold (combined trypsin and chymotrypsin); higher = more stable
Summary of the method: (§1)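 Mini-proteins designed to be under 80 residues and free of cysteine were carried in a PA-tagged cDNA display construct and digested with trypsin and with chymotrypsin. Each protease was applied at 11 threefold-diluted concentrations, alongside a no-protease condition, before sequencing. K50 came from Bayesian fitting of the sequencing counts, and unfolding free energy was obtained by comparing it with a sequence-predicted unfolded-state K50 and a shared folded-state K50, for each protease separately or for both together. Designs were retained only if their AlphaFold2 dimer inter-PAE exceeded 15.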

[2] = folding stability dG unfold from trypsin proteolysis; higher = more stable
Method: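 Folding stability of de novo designed mini-proteins (<80 aa, no Cys; designed by TrROS, TrMRF, ProteinMPNN and the joint model) was measured by cDNA display proteolysis with trypsin and chymotrypsin. Each protease was used at 11 concentrations in a threefold dilution series plus a no-protease condition. K50 was inferred by Bayesian fitting of sequencing counts, and dG unfold was derived against a sequence-predicted unfolded-state K50 (Tsuboyama et al. method). Sequences shown include variable-length N-terminal GS-type padding (SAGGSAGG...) inside a display construct carrying a PA tag. Rows were kept only if the AF2 dimer inter-PAE was >15, to exclude likely homo-oligomers.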

[3] = folding stability dG unfold from chymotrypsin proteolysis; higher = more stable
Summary of the method: as §1

## SAGGSAGGSAGGSVIEVKDPNGKKYIIIKTPDPNVYPVTVIPPDGTTTVTPVSDYSKLLSSAGGSAGGSAGG [r7_769_JUSTAS]
[1]
  folding stability dG unfold: -0.527 ± 0.42 kcal/mol
[2]
  folding stability dG unfold: -0.893 ± 0.4 kcal/mol
[3]
  folding stability dG unfold: -0.464 ± 0.56 kcal/mol

## SMPVQVTTDPSTGTVTITLPASTVDPETLREVLEALPADATTVTVNVDDPPVAEQVREIAAELGLPVTLTSA [r9_919_JUSTAS]
[1]
  folding stability dG unfold: 0.783 ± 0.074 kcal/mol
[2]
  folding stability dG unfold: 1.49 ± 0.051 kcal/mol
[3]
  folding stability dG unfold: -0.819 ± 0.16 kcal/mol

## SNMYMFRIDIDVEVKPNPGNGMVMVEFKIKYEYYRYDPDGNMEPIMEMDRTIKVWMSPNQAKDLAKELLKSA [r9_642_TrROS]
[1]
  folding stability dG unfold: 4.64 ± 0.26 kcal/mol
[2]
  folding stability dG unfold: 2.74 ± 0.18 kcal/mol
[3]
  folding stability dG unfold: 5.17 ± 0.18 kcal/mol

## SAGGSAMTLTLKVEVKVKVEVTNEDGSKFTVEKKVTVTVTVEVKKVYLTEEQLKDEEKLKKLLEKLSAGGSA [r15_728_TrROS_Hall]
[1]
  folding stability dG unfold: 3.2 ± 0.36 kcal/mol
[2]
  folding stability dG unfold: 1.73 ± 0.13 kcal/mol
[3]
  folding stability dG unfold: 3.85 ± 0.12 kcal/mol

## SAGGMTLDQLKHALRHKKMQIHEPNPNGWYVTFQNPDGKPPTFPVKSDDELRDILRDAPGFEVEVQPVSAGG [r13_600_TrROS]
[1]
  folding stability dG unfold: 0.608 ± 0.2 kcal/mol
[2]
  folding stability dG unfold: -0.0886 ± 0.17 kcal/mol
[3]
  folding stability dG unfold: 0.84 ± 0.16 kcal/mol

## SAGKVYRIVVENEATGKKVTIEIFEDGTVKVEVDGKKIEIKLSEEDIEKIAELAKKLAPPGAKVKIEPVSAG [r5_791_TrROS_Hall]
[1]
  folding stability dG unfold: 3.17 ± 0.22 kcal/mol
[2]
  folding stability dG unfold: 1.24 ± 0.073 kcal/mol
[3]
  folding stability dG unfold: 3.79 ± 0.14 kcal/mol

## SAGGMTPSVLSNLSEEERKEAVRDFIIEFIKKAFPNVPEDFSVEEVPVLVYDLKTGKLFEVTVHLEGKSAGG [r13_555_TrMRF]
[1]
  folding stability dG unfold: 1.73 ± 0.15 kcal/mol
[2]
  folding stability dG unfold: 1.19 ± 0.083 kcal/mol
[3]
  folding stability dG unfold: 2.16 ± 0.1 kcal/mol

## SAGGSAGGSAGGKPKIEIELTFIDEDGYAYRLRAEIEIDEDGNVHIEVEIEKVPLPEGLSAGGSAGGSAGGS [r10_563_TrROS_Hall]
[1]
  folding stability dG unfold: 3.18 ± 0.21 kcal/mol
[2]
  folding stability dG unfold: 2.9 ± 0.14 kcal/mol
[3]
  folding stability dG unfold: 3.28 ± 0.13 kcal/mol

## SAGGSAGGSTTLTLELPEGRAVVYLTPRPDSWTAKIEFEDPELTLEVEITSLTPPGLDLVNIVKSAGGSAGG [r6_984_JUSTAS]
[1]
  folding stability dG unfold: 2.92 ± 0.18 kcal/mol
[2]
  folding stability dG unfold: 1.61 ± 0.055 kcal/mol
[3]
  folding stability dG unfold: 3.67 ± 0.1 kcal/mol

## SAGGSAGGSAMKIVKITTTQLPNGTTKVTVTFSDGSTKTVTIPPNQPGKSAEEVAKKVLLESAGGSAGGSAG [r3_368_JUSTAS]
[1]
  folding stability dG unfold: 2.96 ± 0.087 kcal/mol
[2]
  folding stability dG unfold: 1.8 ± 0.055 kcal/mol
[3]
  folding stability dG unfold: 3.37 ± 0.054 kcal/mol

## SAGGSGMTTTFSKEVSSKEEAEKIFKRGFPDLNAKVTKFDPKKGTVEIELTFPDGKKSKATAPIKKSAGGSA [r2_201_JUSTAS]
[1]
  folding stability dG unfold: -0.225 ± 0.37 kcal/mol
[2]
  folding stability dG unfold: -0.569 ± 0.58 kcal/mol
[3]
  folding stability dG unfold: 0.0996 ± 0.5 kcal/mol

## SMEPMSREEAEALAREMAEAGARRVLLLFAPDGRLLALRPAEEATEEEVAALRRARPGLRVEELEGSPGESA [r9_568_JUSTAS]
[1]
  folding stability dG unfold: 2.07 ± 0.15 kcal/mol
[2]
  folding stability dG unfold: 0.425 ± 0.16 kcal/mol
[3]
  folding stability dG unfold: 2.97 ± 0.062 kcal/mol

## SAGGSAGGSAGGKKIEIEIVVKNEDGTYTVVRAEVELDENGKLKITKVEVKTVTLEELKKSAGGSAGGSAGG [r7_521_TrROS_Hall]
[1]
  folding stability dG unfold: 3.68 ± 0.077 kcal/mol
[2]
  folding stability dG unfold: 2.01 ± 0.12 kcal/mol
[3]
  folding stability dG unfold: 4.1 ± 0.082 kcal/mol

## SAGGSAGGSAGEPEYVRVRIRVRRRVRNKETGKWEEKEVELTLVFPSKEEALKALEELGLSAGGSAGGSAGG [r11_984_TrROS_Hall]
[1]
  folding stability dG unfold: 4.02 ± 0.051 kcal/mol
[2]
  folding stability dG unfold: 3.99 ± 0.083 kcal/mol
[3]
  folding stability dG unfold: 4.049 ± 0.037 kcal/mol

## SAGGMYIVKIEVKVDGKTIEIYLLVPEEDLEEIEEELKKKIAEELNADEVEIKIEVYRLNEDGEIEPISAGG [r13_877_TrROS_Hall]
[1]
  folding stability dG unfold: 4.8 ± 0.23 kcal/mol
[2]
  folding stability dG unfold: 2.21 ± 0.26 kcal/mol
[3]
  folding stability dG unfold: 5.17 ± 0.085 kcal/mol

## SAGGKVKVVEIRYFPGTNTVEILVEDPGPYLATIRIPAAPDAPIEIDEDANFRVPDAPVVLGEVRPPSAGGS [r16_515_TrMRF]
[1]
  folding stability dG unfold: 1.09 ± 0.072 kcal/mol
[2]
  folding stability dG unfold: 1.19 ± 0.027 kcal/mol
[3]
  folding stability dG unfold: 0.843 ± 0.12 kcal/mol

## SAGGSAGGSAGKKELTFKDKNGKTITVTLEDGEIKEIKIEKPPKPKVVKTEKKYVPKEELSAGGSAGGSAGG [r17_287_TrROS_Hall]
[1]
  folding stability dG unfold: 0.135 ± 0.4 kcal/mol
[2]
  folding stability dG unfold: 0.0355 ± 0.16 kcal/mol
[3]
  folding stability dG unfold: 0.0761 ± 0.069 kcal/mol

## SAGGSAGGSAGGSLKVEVSEEVVGDEKYYLVTATDPVTGEKTVVPMPKEDLEKALEALASAGGSAGGSAGGS [r10_271_JUSTAS]
[1]
  folding stability dG unfold: 0.716 ± 0.062 kcal/mol
[2]
  folding stability dG unfold: 1.46 ± 0.04 kcal/mol
[3]
  folding stability dG unfold: -0.587 ± 0.11 kcal/mol

## SAGGSKIKLPEGMKAEIEVVEVKVKYKYDKNGKPVKKVEEEKTIKVIKIKITDKNGKKFEFTFLLKSAGGSA [r2_218_TrROS_Hall]
[1]
  folding stability dG unfold: 3.12 ± 0.24 kcal/mol
[2]
  folding stability dG unfold: 1.48 ± 0.096 kcal/mol
[3]
  folding stability dG unfold: 3.56 ± 0.11 kcal/mol

## SAGGSAGGSAGGPILKITLELSPEEIEELAKALGLKVKKVEKEKNKDGKLRVTIYIELKSAGGSAGGSAGGS [r10_999_TrROS_Hall]
[1]
  folding stability dG unfold: 2.81 ± 0.078 kcal/mol
[2]
  folding stability dG unfold: 2.12 ± 0.085 kcal/mol
[3]
  folding stability dG unfold: 3.24 ± 0.057 kcal/mol

## SAGGSAGGSAGGEVIEIELPGKTKEEIEEAIKKLPENYKIEIKKDENGRIRVRIFRKEDLSAGGSAGGSAGG [r7_662_TrROS_Hall]
[1]
  folding stability dG unfold: 1.44 ± 0.42 kcal/mol
[2]
  folding stability dG unfold: 1.6 ± 0.15 kcal/mol
[3]
  folding stability dG unfold: 1.5 ± 0.17 kcal/mol

## MTIEIIYWFKDEEEALEFAEEFARMLARQLGLPPEYLENIKIEVEVEEEKNEDGNRYYWVTIKIKIPPGFKS [r1_81_TrROS]
[1]
  folding stability dG unfold: > 6 kcal/mol
[2]
  folding stability dG unfold: 3.86 ± 0.31 kcal/mol
[3]
  folding stability dG unfold: 6.23 ± 0.34 kcal/mol

## SAGGSAGGSKKISLKDIKKVEVKKNKNGTYEVTIEVNGKKLTLTIKNGKIYLSDEAKKLLKKASAGGSAGGS [r20_92_TrROS_Hall]
[1]
  folding stability dG unfold: 2.25 ± 0.33 kcal/mol
[2]
  folding stability dG unfold: 0.487 ± 0.19 kcal/mol
[3]
  folding stability dG unfold: 2.99 ± 0.15 kcal/mol

## SAGGKIIPITFIVPPEVEPEKAAKEIADEIAAFLKAKTDKKIEVKVESVEPLPNGDYLVRVLVIVEESAGGS [r8_156_TrMRF]
[1]
  folding stability dG unfold: 5.2 ± 0.18 kcal/mol
[2]
  folding stability dG unfold: 3.3 ± 0.18 kcal/mol
[3]
  folding stability dG unfold: 5.44 ± 0.3 kcal/mol

## SAGGSAKKKTLTLEEILNLLKEAKEKNPDKTITLEITLKDGSTLTITIYPDGKVTITNEDGSKIELSAGGSA [r15_73_TrROS_Hall]
[1]
  folding stability dG unfold: 2.85 ± 0.14 kcal/mol
[2]
  folding stability dG unfold: 1.23 ± 0.065 kcal/mol
[3]
  folding stability dG unfold: 3.25 ± 0.12 kcal/mol

## SAGSEIVEEILKELGVPESYEVVEVKEEVFEFPDSIKYKITVTIKDPSSTKTKTITVEIEIPVPDPKLESAG [r5_94_JUSTAS]
[1]
  folding stability dG unfold: 4.25 ± 0.15 kcal/mol
[2]
  folding stability dG unfold: 1.97 ± 0.12 kcal/mol
[3]
  folding stability dG unfold: 4.54 ± 0.087 kcal/mol

## SAGGEPMPPGDKLPITPEAKKLAKKLAPENGAKDVEIKVTQFVPGYVHIKIRNPMNGKKIEIWIPIDSAGGS [r16_281_TrROS]
[1]
  folding stability dG unfold: 1.46 ± 0.42 kcal/mol
[2]
  folding stability dG unfold: 2.47 ± 0.099 kcal/mol
[3]
  folding stability dG unfold: 0.453 ± 0.33 kcal/mol

## SAGGYIPASARIEVLEVFEDGTVRVRVTYPDGSEAEVVARLVRTADGRVYLEIFDPRTGRLLATLELTSAGG [r13_527_TrMRF]
[1]
  folding stability dG unfold: 3.88 ± 0.092 kcal/mol
[2]
  folding stability dG unfold: 4.09 ± 0.09 kcal/mol
[3]
  folding stability dG unfold: 3.81 ± 0.054 kcal/mol

## SAGGSAGGSAGGSMPTYRITVEVDGKKYTITVREGMSPEEIAKRLKELYPNLTVKIEPVSAGGSAGGSAGGS [r4_155_TrROS_Hall]
[1]
  folding stability dG unfold: 4.04 ± 0.13 kcal/mol
[2]
  folding stability dG unfold: 3.75 ± 0.13 kcal/mol
[3]
  folding stability dG unfold: 4.07 ± 0.15 kcal/mol

## SAGGEIKITSVKVLPDGTLVVEAEITLPNGYKVEIRVYADGTVEIRVYKKGEPPEPVTKTITLVVEPSAGGS [r16_787_TrROS_Hall]
[1]
  folding stability dG unfold: 4.06 ± 0.2 kcal/mol
[2]
  folding stability dG unfold: 1.95 ± 0.085 kcal/mol
[3]
  folding stability dG unfold: 4.45 ± 0.14 kcal/mol

## SAGLEIIREIARDLGLPPGHEIEKVDINVEHYPDRIRADIMITITNPKNGGRWQIQIEIEFKLPDPDQKSAG [r5_94_TrROS]
[1]
  folding stability dG unfold: 4.08 ± 0.24 kcal/mol
[2]
  folding stability dG unfold: 1.81 ± 0.075 kcal/mol
[3]
  folding stability dG unfold: 4.84 ± 0.36 kcal/mol

## SAGGKLPKLPPGQIEIMDFQIEPDPDGRYKMSFMITITAPDNGKKVVVMLEMWMPPDGEMKTGIGIMPSAGG [r13_263_TrROS]
[1]
  folding stability dG unfold: 2.65 ± 0.34 kcal/mol
[2]
  folding stability dG unfold: 1.9 ± 0.14 kcal/mol
[3]
  folding stability dG unfold: 2.85 ± 0.15 kcal/mol

## SAGKPIKIEVEEVDPNGKVKIKVTYGNSKLEIELPAKKGGPVEFDIAVKDSDGNVYKAKATVYLPNAKKSAG [r5_296_TrMRF]
[1]
  folding stability dG unfold: 2.85 ± 0.6 kcal/mol
[2]
  folding stability dG unfold: 0.27 ± 0.21 kcal/mol
[3]
  folding stability dG unfold: 3.21 ± 0.44 kcal/mol

## SAGGSAGGSAMKVITLPENADINKVIEAVEAGSPILVKIVDPKSSKTTDLPLPSKEAVEKLSAGGSAGGSAG [r3_362_JUSTAS]
[1]
  folding stability dG unfold: -0.33 ± 0.15 kcal/mol
[2]
  folding stability dG unfold: -0.468 ± 0.17 kcal/mol
[3]
  folding stability dG unfold: -0.394 ± 0.18 kcal/mol
